The values below come from the supplement of paper PMC7666118.

The chains behind the UniProt entries cited, without tags or fusion partners. Where a name states a change or a piece, a line headed by the entry shows the natural chain unless it says otherwise.
UniProt Q0VD83: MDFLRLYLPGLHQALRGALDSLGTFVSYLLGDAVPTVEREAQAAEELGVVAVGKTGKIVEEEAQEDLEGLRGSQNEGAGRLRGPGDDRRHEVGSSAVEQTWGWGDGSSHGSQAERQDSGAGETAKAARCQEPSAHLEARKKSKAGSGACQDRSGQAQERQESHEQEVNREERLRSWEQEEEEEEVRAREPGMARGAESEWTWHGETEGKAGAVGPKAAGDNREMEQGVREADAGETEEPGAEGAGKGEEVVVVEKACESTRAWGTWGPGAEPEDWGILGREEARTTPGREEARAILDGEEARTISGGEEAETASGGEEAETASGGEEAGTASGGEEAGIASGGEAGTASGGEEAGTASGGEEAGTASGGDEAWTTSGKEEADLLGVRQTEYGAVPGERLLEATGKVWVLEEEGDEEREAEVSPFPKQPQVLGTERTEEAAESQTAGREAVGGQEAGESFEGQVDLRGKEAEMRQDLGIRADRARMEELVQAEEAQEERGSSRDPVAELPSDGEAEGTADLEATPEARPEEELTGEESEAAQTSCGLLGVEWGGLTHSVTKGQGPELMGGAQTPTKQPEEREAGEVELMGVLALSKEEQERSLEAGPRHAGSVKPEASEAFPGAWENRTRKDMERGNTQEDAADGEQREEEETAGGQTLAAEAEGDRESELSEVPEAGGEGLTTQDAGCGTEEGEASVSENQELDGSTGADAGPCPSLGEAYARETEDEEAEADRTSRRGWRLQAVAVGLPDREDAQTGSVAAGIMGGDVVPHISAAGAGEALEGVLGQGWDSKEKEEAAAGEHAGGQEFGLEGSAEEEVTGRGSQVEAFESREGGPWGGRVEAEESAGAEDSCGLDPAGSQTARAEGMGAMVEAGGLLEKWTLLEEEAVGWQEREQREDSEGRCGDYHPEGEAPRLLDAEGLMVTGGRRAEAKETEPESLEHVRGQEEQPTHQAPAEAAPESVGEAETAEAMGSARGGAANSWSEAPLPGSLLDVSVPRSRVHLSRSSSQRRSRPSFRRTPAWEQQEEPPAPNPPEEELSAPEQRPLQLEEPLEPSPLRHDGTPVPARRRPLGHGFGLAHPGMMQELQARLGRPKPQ
UniProt Q8IUR7, whole entry: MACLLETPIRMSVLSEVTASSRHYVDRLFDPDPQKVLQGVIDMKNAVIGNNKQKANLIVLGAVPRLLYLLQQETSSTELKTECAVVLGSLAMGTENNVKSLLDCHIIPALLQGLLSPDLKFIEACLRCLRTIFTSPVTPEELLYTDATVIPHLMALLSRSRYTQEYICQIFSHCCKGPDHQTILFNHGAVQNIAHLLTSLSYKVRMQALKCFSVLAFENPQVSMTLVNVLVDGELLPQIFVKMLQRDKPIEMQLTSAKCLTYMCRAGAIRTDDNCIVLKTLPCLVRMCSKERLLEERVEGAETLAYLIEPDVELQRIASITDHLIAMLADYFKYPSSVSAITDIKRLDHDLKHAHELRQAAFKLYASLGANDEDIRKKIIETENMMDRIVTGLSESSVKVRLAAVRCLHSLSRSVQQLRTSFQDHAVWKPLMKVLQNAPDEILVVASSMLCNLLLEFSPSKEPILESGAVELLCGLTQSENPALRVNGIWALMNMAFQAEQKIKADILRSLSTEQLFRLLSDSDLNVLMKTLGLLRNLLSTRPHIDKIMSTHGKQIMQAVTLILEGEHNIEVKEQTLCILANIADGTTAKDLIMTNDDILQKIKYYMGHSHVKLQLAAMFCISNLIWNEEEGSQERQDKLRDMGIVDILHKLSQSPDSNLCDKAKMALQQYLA
UniProt Q6NXE6: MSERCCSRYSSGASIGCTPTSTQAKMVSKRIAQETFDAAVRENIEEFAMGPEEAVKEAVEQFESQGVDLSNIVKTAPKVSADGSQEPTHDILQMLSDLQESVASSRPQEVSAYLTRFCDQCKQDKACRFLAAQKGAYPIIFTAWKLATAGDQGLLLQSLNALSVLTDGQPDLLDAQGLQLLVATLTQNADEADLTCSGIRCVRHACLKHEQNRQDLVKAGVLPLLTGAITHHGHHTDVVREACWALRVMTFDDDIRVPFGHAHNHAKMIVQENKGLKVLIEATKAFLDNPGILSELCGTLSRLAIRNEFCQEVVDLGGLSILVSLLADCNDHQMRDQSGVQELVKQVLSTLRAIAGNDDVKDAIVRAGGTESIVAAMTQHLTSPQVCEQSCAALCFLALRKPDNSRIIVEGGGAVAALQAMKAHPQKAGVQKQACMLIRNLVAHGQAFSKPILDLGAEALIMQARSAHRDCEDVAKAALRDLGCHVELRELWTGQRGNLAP
UniProt Q53QZ3: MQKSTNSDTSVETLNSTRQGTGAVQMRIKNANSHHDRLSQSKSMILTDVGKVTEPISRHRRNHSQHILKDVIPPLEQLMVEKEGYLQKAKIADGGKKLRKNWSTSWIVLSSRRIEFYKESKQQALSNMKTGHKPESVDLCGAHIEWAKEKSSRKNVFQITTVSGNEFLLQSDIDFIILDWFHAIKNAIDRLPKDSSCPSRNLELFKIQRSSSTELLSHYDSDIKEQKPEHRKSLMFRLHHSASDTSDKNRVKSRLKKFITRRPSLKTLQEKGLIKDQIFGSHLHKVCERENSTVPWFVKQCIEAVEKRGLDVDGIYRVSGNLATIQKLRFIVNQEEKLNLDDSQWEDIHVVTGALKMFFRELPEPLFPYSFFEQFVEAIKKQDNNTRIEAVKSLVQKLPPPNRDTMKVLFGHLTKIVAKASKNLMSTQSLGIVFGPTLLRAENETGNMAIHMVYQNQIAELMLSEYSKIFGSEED
UniProt Q9BT22: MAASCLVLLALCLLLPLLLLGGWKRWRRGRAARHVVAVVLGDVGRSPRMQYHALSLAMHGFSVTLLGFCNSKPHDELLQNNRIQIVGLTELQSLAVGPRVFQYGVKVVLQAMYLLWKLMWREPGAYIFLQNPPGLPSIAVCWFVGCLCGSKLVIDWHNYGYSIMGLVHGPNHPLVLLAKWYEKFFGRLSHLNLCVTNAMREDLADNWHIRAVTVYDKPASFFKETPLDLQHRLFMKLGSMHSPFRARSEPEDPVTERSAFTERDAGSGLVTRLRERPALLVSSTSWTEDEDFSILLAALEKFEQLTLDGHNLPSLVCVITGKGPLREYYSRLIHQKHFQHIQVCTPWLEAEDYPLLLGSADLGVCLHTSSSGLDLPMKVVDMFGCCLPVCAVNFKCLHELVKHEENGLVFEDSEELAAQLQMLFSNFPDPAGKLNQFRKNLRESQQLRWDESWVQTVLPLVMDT
UniProt Q01432: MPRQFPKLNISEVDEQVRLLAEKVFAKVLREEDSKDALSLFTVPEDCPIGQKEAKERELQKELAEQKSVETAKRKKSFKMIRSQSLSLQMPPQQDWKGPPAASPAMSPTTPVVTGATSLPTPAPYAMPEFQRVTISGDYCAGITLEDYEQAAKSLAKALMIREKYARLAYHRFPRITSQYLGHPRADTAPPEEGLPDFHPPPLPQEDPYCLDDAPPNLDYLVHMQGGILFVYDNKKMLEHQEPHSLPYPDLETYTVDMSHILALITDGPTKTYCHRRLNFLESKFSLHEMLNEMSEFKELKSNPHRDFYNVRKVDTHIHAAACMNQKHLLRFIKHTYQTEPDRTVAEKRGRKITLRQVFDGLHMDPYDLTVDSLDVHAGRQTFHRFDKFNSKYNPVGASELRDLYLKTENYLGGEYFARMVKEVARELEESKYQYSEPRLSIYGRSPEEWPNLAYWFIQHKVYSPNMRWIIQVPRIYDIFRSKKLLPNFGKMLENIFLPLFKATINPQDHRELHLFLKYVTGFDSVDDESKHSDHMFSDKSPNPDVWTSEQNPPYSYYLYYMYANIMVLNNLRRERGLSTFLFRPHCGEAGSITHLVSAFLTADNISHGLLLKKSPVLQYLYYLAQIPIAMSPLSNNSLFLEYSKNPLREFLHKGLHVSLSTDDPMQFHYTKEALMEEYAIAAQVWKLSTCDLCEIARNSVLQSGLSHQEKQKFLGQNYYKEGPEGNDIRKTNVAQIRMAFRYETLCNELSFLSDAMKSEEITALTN
UniProt Q9Y2Y0: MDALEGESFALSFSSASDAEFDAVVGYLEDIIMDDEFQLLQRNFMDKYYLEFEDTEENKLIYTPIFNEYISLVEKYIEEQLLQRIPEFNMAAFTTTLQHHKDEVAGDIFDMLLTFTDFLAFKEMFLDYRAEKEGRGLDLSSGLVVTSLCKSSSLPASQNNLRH
UniProt Q9Y6D5: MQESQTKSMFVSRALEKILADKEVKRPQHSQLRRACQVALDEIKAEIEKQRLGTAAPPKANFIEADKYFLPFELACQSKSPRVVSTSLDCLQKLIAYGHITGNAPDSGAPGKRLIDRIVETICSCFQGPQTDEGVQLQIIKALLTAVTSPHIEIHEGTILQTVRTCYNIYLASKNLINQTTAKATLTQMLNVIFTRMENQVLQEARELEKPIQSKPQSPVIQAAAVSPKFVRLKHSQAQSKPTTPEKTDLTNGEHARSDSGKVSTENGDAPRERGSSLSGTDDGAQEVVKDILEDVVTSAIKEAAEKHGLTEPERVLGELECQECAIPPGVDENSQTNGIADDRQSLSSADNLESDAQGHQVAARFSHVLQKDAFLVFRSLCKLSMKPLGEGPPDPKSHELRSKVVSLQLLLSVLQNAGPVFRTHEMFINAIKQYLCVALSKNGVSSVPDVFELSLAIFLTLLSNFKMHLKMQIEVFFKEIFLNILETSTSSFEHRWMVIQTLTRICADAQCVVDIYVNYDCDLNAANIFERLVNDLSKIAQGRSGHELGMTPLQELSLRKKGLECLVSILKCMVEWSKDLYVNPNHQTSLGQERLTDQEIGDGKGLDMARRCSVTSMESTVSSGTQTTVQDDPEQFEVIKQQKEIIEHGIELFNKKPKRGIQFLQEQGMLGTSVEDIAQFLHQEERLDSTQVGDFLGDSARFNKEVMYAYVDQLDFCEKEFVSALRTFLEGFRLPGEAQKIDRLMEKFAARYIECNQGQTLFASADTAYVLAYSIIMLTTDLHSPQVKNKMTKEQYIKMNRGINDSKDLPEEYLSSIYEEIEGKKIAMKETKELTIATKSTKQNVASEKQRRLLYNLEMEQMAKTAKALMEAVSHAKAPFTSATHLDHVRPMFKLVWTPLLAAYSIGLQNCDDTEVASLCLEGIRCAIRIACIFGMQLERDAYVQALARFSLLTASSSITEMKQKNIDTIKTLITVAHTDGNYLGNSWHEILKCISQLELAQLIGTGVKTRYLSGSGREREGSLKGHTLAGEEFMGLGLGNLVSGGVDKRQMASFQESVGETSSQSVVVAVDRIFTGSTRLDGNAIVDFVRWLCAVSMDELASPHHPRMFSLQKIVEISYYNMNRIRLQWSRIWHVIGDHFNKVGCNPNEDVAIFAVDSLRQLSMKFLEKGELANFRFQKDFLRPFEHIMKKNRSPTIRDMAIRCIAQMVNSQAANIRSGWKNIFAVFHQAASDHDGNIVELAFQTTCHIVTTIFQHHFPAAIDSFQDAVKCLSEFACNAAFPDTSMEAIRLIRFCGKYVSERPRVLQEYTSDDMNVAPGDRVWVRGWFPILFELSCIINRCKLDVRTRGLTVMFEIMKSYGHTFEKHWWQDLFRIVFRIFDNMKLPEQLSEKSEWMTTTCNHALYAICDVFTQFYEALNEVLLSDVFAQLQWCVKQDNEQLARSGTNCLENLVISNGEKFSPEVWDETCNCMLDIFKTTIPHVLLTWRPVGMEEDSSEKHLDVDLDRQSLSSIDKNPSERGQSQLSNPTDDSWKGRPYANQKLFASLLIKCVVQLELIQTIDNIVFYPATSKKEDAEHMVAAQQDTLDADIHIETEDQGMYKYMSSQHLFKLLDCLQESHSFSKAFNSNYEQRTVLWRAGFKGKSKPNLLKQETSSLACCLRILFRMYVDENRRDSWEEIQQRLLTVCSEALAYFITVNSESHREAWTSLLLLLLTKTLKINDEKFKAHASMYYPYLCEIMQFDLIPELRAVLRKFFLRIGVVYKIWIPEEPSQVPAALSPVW
UniProt Q86W74: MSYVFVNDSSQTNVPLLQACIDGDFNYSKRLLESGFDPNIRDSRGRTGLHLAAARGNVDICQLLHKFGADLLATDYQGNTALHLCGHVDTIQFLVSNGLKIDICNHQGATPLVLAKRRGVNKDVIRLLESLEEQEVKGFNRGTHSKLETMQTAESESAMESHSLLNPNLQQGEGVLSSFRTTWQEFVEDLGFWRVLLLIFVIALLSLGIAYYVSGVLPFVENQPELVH
UniProt Q9BQE5: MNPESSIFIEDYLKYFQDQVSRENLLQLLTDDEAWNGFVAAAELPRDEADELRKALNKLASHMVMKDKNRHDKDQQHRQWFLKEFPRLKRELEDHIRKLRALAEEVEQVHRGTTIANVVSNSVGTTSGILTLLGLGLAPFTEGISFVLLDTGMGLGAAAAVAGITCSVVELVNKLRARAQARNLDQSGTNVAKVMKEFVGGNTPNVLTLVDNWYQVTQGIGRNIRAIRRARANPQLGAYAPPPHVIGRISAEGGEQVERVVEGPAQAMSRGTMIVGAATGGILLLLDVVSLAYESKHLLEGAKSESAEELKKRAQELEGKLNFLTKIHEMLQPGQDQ

The other results are listed elsewhere or left out.

Compound in the test: COc1ccc(Cn2ccc3cc(C)c(C(=O)NO)cc32)cc1
The experiment in a line: dose-dependent thermal stabilisation call (2D-TPP, DLPTP, 10% FDR) (binary (1 = stabilised)); higher = stabilised by the compound. The settings on record: system: HL-60 intact cells; concentration range 0.04-10 µM. The method, then:
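2D thermal proteome profiling in intact HL-60 cells treated with BRD-3811 (0, 0.04, 0.29, 2, 10 uM) for 90 min at 37 C, then heated 3 min at one of 12 temperatures (42-63.9 C). Soluble protein was quantified by TMT10 MS. The value is the DLPTP call of the paper: dose-dependent thermal stabilisation over all temperatures at 10% FDR (F-test of a dose-response against a flat model); one experiment, one call per tested protein.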
In the case of APOB48R (UniProt Q0VD83), the “dose-dependent thermal stabilisation call” value was inactive: 0.

For ARL8A (UniProt Q96BM9), the “dose-dependent thermal stabilisation call” value is inactive: 0.

APAF1 (UniProt O14727): the “dose-dependent thermal stabilisation call” value is inactive: 0.

As to APITD1 (UniProt Q8N2Z9), the “dose-dependent thermal stabilisation call” value is inactive: 0.

As for ARMET (UniProt P55145), the “dose-dependent thermal stabilisation call” value was inactive: 0.

With ATN1 (UniProt P54259), the “dose-dependent thermal stabilisation call” value is inactive: 0.

Take ARMC8 (UniProt Q8IUR7): the “dose-dependent thermal stabilisation call” value is inactive: 0.

On to ANXA7 (UniProt P20073), for which the “dose-dependent thermal stabilisation call” value was inactive: 0.

On to ANKMY2 (UniProt Q8IV38), for which the “dose-dependent thermal stabilisation call” value was inactive: 0.

In the case of ALDH18A1 (UniProt P54886), the “dose-dependent thermal stabilisation call” value is inactive: 0.

Turning to ARMC6 (UniProt Q6NXE6), the “dose-dependent thermal stabilisation call” value was inactive: 0.

Consider ARHGAP15 (UniProt Q53QZ3), for which the “dose-dependent thermal stabilisation call” value is inactive: 0.

As for ANKS1A (UniProt Q92625), the “dose-dependent thermal stabilisation call” value is inactive: 0.

Regarding ALG1 (UniProt Q9BT22), the “dose-dependent thermal stabilisation call” value was inactive: 0.

Turning to ARL15 (UniProt Q9NXU5), the “dose-dependent thermal stabilisation call” value is inactive: 0.

In the case of ALDH1A2 (UniProt O94788), the “dose-dependent thermal stabilisation call” value is inactive: 0.

ARHGAP9 (UniProt Q9BRR9): the “dose-dependent thermal stabilisation call” value was inactive: 0.

As for AK2 (UniProt P54819), the “dose-dependent thermal stabilisation call” value was inactive: 0.

AMFR (UniProt Q9UKV5): the “dose-dependent thermal stabilisation call” value was inactive: 0.

In the case of ANKRD27 (UniProt Q96NW4), the “dose-dependent thermal stabilisation call” value is inactive: 0.

With AP3B1 (UniProt O00203), the “dose-dependent thermal stabilisation call” value is inactive: 0.

Take ARMC10 (UniProt Q8N2F6): the “dose-dependent thermal stabilisation call” value is inactive: 0.

As to ALDH1B1 (UniProt P30837), the “dose-dependent thermal stabilisation call” value was inactive: 0.

In the case of ASMTL (UniProt O95671), the “dose-dependent thermal stabilisation call” value was inactive: 0.

For APOBEC3B (UniProt Q9UH17), the “dose-dependent thermal stabilisation call” value was inactive: 0.

With AMPD3 (UniProt Q01432), the “dose-dependent thermal stabilisation call” value is inactive: 0.

Take ATL2 (UniProt Q8NHH9): the “dose-dependent thermal stabilisation call” value is inactive: 0.

With AP3S1 (UniProt Q92572), the “dose-dependent thermal stabilisation call” value was inactive: 0.

In the case of ALG3 (UniProt Q92685), the “dose-dependent thermal stabilisation call” value is inactive: 0.

For ARHGEF7 (UniProt Q14155), the “dose-dependent thermal stabilisation call” value is inactive: 0.

For the target ARPC2 (UniProt O15144), the “dose-dependent thermal stabilisation call” value is inactive: 0.

Consider AGAP3 (UniProt Q96P47), for which the “dose-dependent thermal stabilisation call” value was inactive: 0.

Take ATG9A (UniProt Q7Z3C6): the “dose-dependent thermal stabilisation call” value was inactive: 0.

For the target ARL2BP (UniProt Q9Y2Y0), the “dose-dependent thermal stabilisation call” value is inactive: 0.

With AP1GBP1 (UniProt Q9UMZ2), the “dose-dependent thermal stabilisation call” value was inactive: 0.

For ARFGEF2 (UniProt Q9Y6D5), the “dose-dependent thermal stabilisation call” value was inactive: 0.

On to ANKRD46 (UniProt Q86W74), for which the “dose-dependent thermal stabilisation call” value was inactive: 0.

As to ANXA6 (UniProt P08133), the “dose-dependent thermal stabilisation call” value was inactive: 0.

As to ARF6 (UniProt P62330), the “dose-dependent thermal stabilisation call” value is inactive: 0.

APOL2 (UniProt Q9BQE5): the “dose-dependent thermal stabilisation call” value was inactive: 0.
